# Source: paper PMC11497051
# Amino acid sequences for entries named in this document (tags omitted).
# UniProt P46937: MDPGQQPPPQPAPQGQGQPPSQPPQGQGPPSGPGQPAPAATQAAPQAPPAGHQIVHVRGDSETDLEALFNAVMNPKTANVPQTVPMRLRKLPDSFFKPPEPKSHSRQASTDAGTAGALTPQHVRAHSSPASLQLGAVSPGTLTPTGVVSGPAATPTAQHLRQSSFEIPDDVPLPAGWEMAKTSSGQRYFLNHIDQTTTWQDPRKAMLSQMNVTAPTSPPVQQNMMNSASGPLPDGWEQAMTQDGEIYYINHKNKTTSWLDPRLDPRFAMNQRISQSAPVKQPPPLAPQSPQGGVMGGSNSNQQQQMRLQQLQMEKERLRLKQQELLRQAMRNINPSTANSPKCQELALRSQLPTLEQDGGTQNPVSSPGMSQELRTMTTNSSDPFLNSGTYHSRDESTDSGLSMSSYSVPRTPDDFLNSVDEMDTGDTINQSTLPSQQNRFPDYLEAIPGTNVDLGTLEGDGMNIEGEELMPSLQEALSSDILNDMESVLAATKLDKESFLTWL
# Target: T1, Neuraminidase 4 (NEU4) (human (endogenous in HK-2)) (UniProt Q8WWR8)
# T1 sequence: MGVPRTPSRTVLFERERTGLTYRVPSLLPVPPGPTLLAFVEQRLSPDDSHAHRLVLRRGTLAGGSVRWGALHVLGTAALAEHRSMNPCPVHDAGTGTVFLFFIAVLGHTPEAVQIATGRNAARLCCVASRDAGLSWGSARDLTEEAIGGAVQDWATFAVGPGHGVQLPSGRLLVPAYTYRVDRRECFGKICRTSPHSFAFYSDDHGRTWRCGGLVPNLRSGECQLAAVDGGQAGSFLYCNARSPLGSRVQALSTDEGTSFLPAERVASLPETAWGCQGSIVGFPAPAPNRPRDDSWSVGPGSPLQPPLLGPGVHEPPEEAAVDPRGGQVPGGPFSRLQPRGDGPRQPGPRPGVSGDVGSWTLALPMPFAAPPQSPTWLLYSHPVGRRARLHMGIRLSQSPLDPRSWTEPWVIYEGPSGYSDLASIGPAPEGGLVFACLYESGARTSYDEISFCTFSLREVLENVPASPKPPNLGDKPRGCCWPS
# Test: affinity purification with mass spectrometry; lysates of HK-2 cells treated with TGF-β for 24 h; IP with NEU4 antibody or IgG on Protein A/G magnetic beads; washes with 1% SDS, 0.1% SDS and 6 M urea in PBS; bands cut from SDS-PAGE, trypsin, LC-MS/MS
substance,measurement,value
Yes-associated protein (YAP) (from UniProt P46937 1-504),binding,binds

# No constants are given. Whether binding was seen depends on the method and setting. In cells and extracts the contact can be indirect. These calls come from enrichment with a bait or labelling near it, and not all partners need be listed.
